Residue numbers refer to the chain shown, from its start. This is a selection; strong and weak results do not stand in their true shares. The calls were merged from several studies; some rest on single wells. This is one part of the list.
Legend:
Conditions in all cases: stereoisomer not certain
OR1C1 (Homo sapiens) = molecular target: T1, OR1C1 (Homo sapiens) (UniProt Q15619)
T1 sequence (whole entry): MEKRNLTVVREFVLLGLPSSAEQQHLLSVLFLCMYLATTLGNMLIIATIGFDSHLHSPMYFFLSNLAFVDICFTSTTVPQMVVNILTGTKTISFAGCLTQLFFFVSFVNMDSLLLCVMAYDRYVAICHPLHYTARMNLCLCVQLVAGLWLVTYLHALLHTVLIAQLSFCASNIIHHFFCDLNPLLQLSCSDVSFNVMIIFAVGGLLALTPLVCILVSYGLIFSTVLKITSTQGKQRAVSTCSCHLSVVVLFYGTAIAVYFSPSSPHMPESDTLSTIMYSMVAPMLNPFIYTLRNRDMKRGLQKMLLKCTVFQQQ
Procedure, shortened: (§1)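 Transient luciferase assays in mammalian cell lines were common, though methods varied by source. The values come from published papers and their supplementary material, with extra details from the original authors when needed. Responsive refers to a measured signal the original authors judged statistically different from baseline, and non-responsive (inactive) to the remainder.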

Chains of the proteins cited; added tags and fusions are not shown. A line that says so, or that is headed by a name, gives the form on record, which may keep a tag or linker.
OR1A2 K109N, as listed by the source, stated change not applied: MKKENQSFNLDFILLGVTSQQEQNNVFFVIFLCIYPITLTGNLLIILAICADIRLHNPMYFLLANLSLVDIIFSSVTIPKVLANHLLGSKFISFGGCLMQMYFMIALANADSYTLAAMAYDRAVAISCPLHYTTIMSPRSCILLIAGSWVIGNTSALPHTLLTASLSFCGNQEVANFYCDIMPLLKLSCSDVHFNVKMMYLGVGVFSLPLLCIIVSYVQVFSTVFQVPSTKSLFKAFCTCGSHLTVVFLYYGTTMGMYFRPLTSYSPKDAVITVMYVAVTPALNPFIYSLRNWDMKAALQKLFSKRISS
OR1D2, as listed by the source: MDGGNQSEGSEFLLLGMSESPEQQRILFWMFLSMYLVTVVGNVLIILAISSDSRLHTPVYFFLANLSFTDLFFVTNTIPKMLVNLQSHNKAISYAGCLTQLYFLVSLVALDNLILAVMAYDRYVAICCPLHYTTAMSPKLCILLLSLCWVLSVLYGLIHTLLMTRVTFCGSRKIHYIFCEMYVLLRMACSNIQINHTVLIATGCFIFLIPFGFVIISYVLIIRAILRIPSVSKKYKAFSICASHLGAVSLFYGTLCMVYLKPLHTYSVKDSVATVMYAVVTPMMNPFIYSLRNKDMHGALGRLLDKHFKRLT
OR1E2, as listed by the source: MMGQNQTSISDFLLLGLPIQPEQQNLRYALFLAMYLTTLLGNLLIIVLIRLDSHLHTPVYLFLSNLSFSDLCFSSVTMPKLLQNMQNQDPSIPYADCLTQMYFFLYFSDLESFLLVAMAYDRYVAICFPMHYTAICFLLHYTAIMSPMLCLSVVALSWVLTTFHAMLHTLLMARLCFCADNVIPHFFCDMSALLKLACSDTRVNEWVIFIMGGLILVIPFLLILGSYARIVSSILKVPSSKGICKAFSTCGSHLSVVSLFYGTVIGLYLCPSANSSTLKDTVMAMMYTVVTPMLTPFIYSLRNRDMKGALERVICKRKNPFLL
OR1A2 V205I, as listed by the source, stated change not applied: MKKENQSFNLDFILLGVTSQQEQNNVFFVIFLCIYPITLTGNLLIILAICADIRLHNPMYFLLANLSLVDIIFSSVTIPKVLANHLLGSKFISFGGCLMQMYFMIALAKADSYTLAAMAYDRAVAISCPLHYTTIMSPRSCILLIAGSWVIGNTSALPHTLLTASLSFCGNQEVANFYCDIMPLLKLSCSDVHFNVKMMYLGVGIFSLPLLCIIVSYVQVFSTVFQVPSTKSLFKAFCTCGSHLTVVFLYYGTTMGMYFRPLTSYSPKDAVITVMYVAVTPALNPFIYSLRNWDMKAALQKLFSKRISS
OR1B1, as listed by the source: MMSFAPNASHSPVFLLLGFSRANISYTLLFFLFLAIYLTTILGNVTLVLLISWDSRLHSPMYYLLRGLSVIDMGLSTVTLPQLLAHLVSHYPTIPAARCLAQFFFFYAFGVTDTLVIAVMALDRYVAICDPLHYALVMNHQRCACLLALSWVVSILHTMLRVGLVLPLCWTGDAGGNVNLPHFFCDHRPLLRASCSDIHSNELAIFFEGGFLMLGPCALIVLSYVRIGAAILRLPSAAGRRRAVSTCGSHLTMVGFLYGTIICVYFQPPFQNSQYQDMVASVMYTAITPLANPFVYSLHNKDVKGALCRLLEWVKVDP
OR1A2 T254V, as listed by the source, stated change not applied: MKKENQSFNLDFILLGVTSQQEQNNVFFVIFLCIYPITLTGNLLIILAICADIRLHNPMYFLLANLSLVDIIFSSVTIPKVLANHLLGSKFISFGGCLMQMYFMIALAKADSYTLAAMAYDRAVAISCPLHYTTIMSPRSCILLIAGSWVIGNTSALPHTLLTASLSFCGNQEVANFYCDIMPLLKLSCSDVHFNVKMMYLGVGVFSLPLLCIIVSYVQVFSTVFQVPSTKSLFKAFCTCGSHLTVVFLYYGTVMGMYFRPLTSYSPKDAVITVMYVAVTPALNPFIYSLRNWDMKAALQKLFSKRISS
OR1A2 A108G, as listed by the source, stated change not applied: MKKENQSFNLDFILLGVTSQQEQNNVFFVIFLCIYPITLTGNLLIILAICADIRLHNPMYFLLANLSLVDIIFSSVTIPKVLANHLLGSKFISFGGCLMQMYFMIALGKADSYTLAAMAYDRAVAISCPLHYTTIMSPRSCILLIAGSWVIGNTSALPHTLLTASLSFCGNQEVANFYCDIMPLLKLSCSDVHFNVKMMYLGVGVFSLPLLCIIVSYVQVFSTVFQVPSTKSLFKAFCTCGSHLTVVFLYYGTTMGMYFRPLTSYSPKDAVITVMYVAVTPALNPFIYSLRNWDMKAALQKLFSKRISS
OR1A2 V277T, as listed by the source, stated change not applied: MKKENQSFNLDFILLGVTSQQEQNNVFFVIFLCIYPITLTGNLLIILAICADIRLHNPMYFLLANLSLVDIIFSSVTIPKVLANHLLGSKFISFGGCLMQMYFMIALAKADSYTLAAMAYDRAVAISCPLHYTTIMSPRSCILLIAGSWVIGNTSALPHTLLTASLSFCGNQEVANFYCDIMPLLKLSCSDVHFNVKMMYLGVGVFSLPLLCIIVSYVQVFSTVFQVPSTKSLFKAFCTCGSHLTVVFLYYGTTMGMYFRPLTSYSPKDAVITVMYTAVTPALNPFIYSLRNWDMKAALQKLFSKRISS

OR1D2 (Homo sapiens) = molecular target: T2, OR1D2 (Homo sapiens) (UniProt P34982)
T2 sequence (whole entry): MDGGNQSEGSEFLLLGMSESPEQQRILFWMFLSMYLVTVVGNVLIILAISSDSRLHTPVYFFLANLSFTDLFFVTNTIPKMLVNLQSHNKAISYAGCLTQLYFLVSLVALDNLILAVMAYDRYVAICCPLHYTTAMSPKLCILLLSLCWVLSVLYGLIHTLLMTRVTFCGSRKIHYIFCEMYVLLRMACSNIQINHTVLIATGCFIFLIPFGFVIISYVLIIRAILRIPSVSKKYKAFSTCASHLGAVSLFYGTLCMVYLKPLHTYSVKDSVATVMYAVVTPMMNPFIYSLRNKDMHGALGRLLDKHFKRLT
Procedure, shortened: as §1

OR1D5 (Homo sapiens) = molecular target: T3, OR1D5 (Homo sapiens) (UniProt P58170)
T3 sequence (whole entry): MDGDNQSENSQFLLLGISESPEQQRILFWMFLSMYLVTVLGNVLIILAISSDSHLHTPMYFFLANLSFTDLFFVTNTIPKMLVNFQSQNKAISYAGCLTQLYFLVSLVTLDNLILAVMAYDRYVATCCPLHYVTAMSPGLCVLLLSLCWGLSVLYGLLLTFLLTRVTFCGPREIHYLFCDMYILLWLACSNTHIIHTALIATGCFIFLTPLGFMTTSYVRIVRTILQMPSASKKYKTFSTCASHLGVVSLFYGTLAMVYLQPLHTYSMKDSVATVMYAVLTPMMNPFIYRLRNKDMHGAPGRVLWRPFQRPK
Procedure, shortened: as §1

OR1D5 = system: T4, OR1D5
T4 sequence (whole entry): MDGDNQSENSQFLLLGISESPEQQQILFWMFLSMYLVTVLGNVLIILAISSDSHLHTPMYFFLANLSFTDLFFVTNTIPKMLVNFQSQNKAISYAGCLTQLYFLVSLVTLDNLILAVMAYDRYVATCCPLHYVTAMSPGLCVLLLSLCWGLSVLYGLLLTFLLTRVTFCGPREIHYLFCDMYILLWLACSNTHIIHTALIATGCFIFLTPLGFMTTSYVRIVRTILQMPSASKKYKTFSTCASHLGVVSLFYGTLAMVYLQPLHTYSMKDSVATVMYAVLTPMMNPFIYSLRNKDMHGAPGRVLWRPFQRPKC
Procedure, shortened: as §1

OR1E1 [1] = system: T5, OR1E1
T5 sequence (whole entry): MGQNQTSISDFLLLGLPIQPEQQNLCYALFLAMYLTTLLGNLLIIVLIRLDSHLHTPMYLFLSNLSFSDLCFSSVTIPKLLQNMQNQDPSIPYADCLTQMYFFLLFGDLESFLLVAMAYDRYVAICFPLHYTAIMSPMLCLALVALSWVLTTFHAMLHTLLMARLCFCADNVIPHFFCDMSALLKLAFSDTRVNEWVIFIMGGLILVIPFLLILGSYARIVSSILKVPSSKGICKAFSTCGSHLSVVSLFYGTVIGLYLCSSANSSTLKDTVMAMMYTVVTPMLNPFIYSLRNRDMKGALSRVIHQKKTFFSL
Procedure, shortened: as §1

OR1E1 [2] = system: T6, OR1E1; remark: listed apart in the source
T6 sequence (whole entry): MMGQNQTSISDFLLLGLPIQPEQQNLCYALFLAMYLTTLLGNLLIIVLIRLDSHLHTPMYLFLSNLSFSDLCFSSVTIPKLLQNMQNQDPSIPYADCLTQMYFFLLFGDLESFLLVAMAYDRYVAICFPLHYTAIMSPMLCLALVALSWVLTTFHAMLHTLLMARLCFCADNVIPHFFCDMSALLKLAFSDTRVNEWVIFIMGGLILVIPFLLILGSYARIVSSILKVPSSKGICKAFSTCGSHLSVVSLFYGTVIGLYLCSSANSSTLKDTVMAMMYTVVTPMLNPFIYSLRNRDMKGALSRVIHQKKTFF
Procedure, shortened: as §1

OR1E2 (Homo sapiens) = molecular target: T7, OR1E2 (Homo sapiens) (UniProt P47887)
T7 sequence (whole entry): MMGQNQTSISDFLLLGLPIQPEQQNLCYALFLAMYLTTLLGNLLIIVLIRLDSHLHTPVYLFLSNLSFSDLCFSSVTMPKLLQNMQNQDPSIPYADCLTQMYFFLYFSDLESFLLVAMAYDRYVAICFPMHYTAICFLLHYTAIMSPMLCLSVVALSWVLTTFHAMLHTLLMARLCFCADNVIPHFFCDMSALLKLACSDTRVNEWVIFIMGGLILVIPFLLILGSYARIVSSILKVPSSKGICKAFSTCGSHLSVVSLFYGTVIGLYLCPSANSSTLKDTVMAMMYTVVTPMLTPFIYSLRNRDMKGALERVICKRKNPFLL
Procedure, shortened: as §1

OR1E2 = system: T8, OR1E2
T8 sequence (whole entry): T7 sequence (whole entry) with C27R
Procedure, shortened: as §1

OR1B1 = system: OR1B1
Procedure, shortened: as §1

OR1D4 (Homo sapiens) = OR1D4 (Homo sapiens) (UniProt P47884)
Procedure, shortened: as §1

OR1E1 (Homo sapiens) = OR1E1 (Homo sapiens) (UniProt P30953)
Procedure, shortened: as §1

OR1A2 A108G = system: OR1A2 A108G
Procedure, shortened: as §1

OR1A2 K109N = system: OR1A2 K109N
Procedure, shortened: as §1

OR1A2 T254V = system: OR1A2 T254V
Procedure, shortened: as §1

OR1A2 V205I = system: OR1A2 V205I
Procedure, shortened: as §1

OR1A2 V277T = system: OR1A2 V277T
Procedure, shortened: as §1

OR1D2 [3] = system: OR1D2
Procedure, shortened: as §1

OR1D2 [4] = system: OR1D2; remark: listed apart in the source
Procedure, shortened: as §1

OR1D2 [5] = system: OR1D2; remark: listed apart in the source
Procedure, shortened: as §1

OR1D2 [6] = system: OR1D2; remark: listed apart in the source
Procedure, shortened: as §1

Measured: odorant receptor agonist call

CC12CCC(C1)C(C)(C)C2=O (centres undefined)
inactive: OR1C1 (Homo sapiens) | OR1D2 (Homo sapiens) | OR1D5 (Homo sapiens) | OR1D5 | OR1E1 [1] | OR1E1 [2] | OR1E2 (Homo sapiens) | OR1E2

CCCCCCCCCC=O
active: OR1D5
inactive: OR1C1 (Homo sapiens) | OR1D2 (Homo sapiens) | OR1D5 (Homo sapiens) | OR1E1 [1] | OR1E1 [2] | OR1E2 (Homo sapiens) | OR1E2

O=CCc1ccccc1
active: OR1D2 (Homo sapiens) | OR1D5
inactive: OR1C1 (Homo sapiens) | OR1D5 (Homo sapiens) | OR1E1 [1] | OR1E1 [2] | OR1E2 (Homo sapiens) | OR1E2

COc1ccccc1O
inactive: OR1C1 (Homo sapiens) | OR1D2 (Homo sapiens) | OR1D5 (Homo sapiens) | OR1D5 | OR1E1 [1] | OR1E1 [2] | OR1E2 (Homo sapiens) | OR1E2

CC(C)CC(=O)O
inactive: OR1C1 (Homo sapiens) | OR1D2 (Homo sapiens) | OR1D5 (Homo sapiens) | OR1D5 | OR1E1 [1] | OR1E2 (Homo sapiens) | OR1E2
active: OR1E1 [2]

CC12C=CCC1C1CCC3CC(=O)CCC3(C)C1CC2 (centres undefined)
inactive: OR1B1 | OR1C1 (Homo sapiens) | OR1D2 (Homo sapiens) | OR1D4 (Homo sapiens) | OR1D5 (Homo sapiens) | OR1D5 | OR1E1 (Homo sapiens) | OR1E1 [1] | OR1E1 [2] | OR1E2 (Homo sapiens) | OR1E2

CC(C)C=O
inactive: OR1C1 (Homo sapiens) | OR1D2 (Homo sapiens) | OR1D5 (Homo sapiens) | OR1D5 | OR1E1 [1] | OR1E1 [2] | OR1E2 (Homo sapiens) | OR1E2

CCCCCCCC=CC=O
inactive: OR1D2 (Homo sapiens) | OR1D5 (Homo sapiens) | OR1D5 | OR1E1 [1] | OR1E1 [2] | OR1E2 (Homo sapiens) | OR1E2
active: OR1C1 (Homo sapiens)

CC=Cc1ccc(O)c(OC)c1
active: OR1D5 | OR1E1 [1]
inactive: OR1C1 (Homo sapiens) | OR1D2 (Homo sapiens) | OR1D5 (Homo sapiens) | OR1E1 [2] | OR1E2 (Homo sapiens) | OR1E2

2 records drawn at random from those above, as already listed:
CC12C=CCC1C1CCC3CC(=O)CCC3(C)C1CC2 (centres undefined)
inactive: OR1B1 | OR1C1 (Homo sapiens) | OR1D2 (Homo sapiens) | OR1D4 (Homo sapiens) | OR1D5 (Homo sapiens) | OR1D5 | OR1E1 (Homo sapiens) | OR1E1 [1] | OR1E1 [2] | OR1E2 (Homo sapiens) | OR1E2

CC(C)CC(=O)O
inactive: OR1C1 (Homo sapiens) | OR1D2 (Homo sapiens) | OR1D5 (Homo sapiens) | OR1D5 | OR1E1 [1] | OR1E2 (Homo sapiens) | OR1E2
active: OR1E1 [2]

Remaining list, next part.

CCC=CCCO
inactive: OR1C1 (Homo sapiens) | OR1D2 (Homo sapiens) | OR1D5 (Homo sapiens) | OR1D5 | OR1E1 [1] | OR1E1 [2] | OR1E2 (Homo sapiens) | OR1E2

CCCCCCCOC(C)=O
inactive: OR1C1 (Homo sapiens) | OR1D2 (Homo sapiens) | OR1D5 (Homo sapiens) | OR1D5 | OR1E1 [1] | OR1E1 [2] | OR1E2 (Homo sapiens) | OR1E2

c1cnccn1
inactive: OR1C1 (Homo sapiens) | OR1D2 (Homo sapiens) | OR1D5 (Homo sapiens) | OR1D5 | OR1E1 [1] | OR1E1 [2] | OR1E2 (Homo sapiens) | OR1E2

CCCCCOC(C)=O
active: OR1C1 (Homo sapiens)
inactive: OR1D2 (Homo sapiens) | OR1D5 (Homo sapiens) | OR1D5 | OR1E1 [1] | OR1E1 [2] | OR1E2 (Homo sapiens) | OR1E2

CC(C)(C)c1ccc(CCC=O)cc1
active: OR1D2 (Homo sapiens)
inactive: OR1C1 (Homo sapiens) | OR1D5 (Homo sapiens) | OR1D5 | OR1E1 [1] | OR1E1 [2] | OR1E2 (Homo sapiens) | OR1E2

C=CCc1ccc(OC(C)=O)c(OC)c1
inactive: OR1C1 (Homo sapiens) | OR1D2 (Homo sapiens) | OR1D5 (Homo sapiens) | OR1E1 [1] | OR1E1 [2] | OR1E2 (Homo sapiens) | OR1E2
active: OR1D5

CC(=O)OC1CC2CCC1(C)C2(C)C (centres undefined)
inactive: OR1C1 (Homo sapiens) | OR1D2 (Homo sapiens) | OR1D5 (Homo sapiens) | OR1D5 | OR1E1 [1] | OR1E1 [2] | OR1E2 (Homo sapiens) | OR1E2

CC1=CCC(C(C)(C)O)CC1 (centres undefined)
inactive: OR1C1 (Homo sapiens) | OR1D2 (Homo sapiens) | OR1D5 (Homo sapiens) | OR1D5 | OR1E1 [1] | OR1E1 [2] | OR1E2 (Homo sapiens) | OR1E2

CC12CCC(CC1)C(C)(C)O2
inactive: OR1C1 (Homo sapiens) | OR1D2 (Homo sapiens) | OR1D5 (Homo sapiens) | OR1D5 | OR1E1 [1] | OR1E1 [2] | OR1E2 (Homo sapiens) | OR1E2

CCCCCC(=O)O
inactive: OR1C1 (Homo sapiens) | OR1D2 (Homo sapiens) | OR1D5 (Homo sapiens) | OR1D5 | OR1E1 [1] | OR1E1 [2] | OR1E2 (Homo sapiens) | OR1E2

c1ccc(Oc2ccccc2)cc1
inactive: OR1C1 (Homo sapiens) | OR1D2 (Homo sapiens) | OR1D5 (Homo sapiens) | OR1D5 | OR1E1 [1] | OR1E1 [2] | OR1E2 (Homo sapiens) | OR1E2

CC(C)=CCCC(C)=CC=O
inactive: OR1C1 (Homo sapiens) | OR1D2 (Homo sapiens) | OR1D5 (Homo sapiens) | OR1E1 [1] | OR1E1 [2] | OR1E2 (Homo sapiens) | OR1E2
active: OR1D5

C=C(C)C1CC=C(C)C(=O)C1 (centres undefined)
inactive: OR1A2 A108G | OR1A2 K109N | OR1A2 T254V | OR1A2 V205I | OR1A2 V277T

CC(C)C(=O)O
inactive: OR1C1 (Homo sapiens) | OR1D2 (Homo sapiens) | OR1D5 (Homo sapiens) | OR1D5 | OR1E1 [1] | OR1E1 [2] | OR1E2 (Homo sapiens) | OR1E2

CC(=O)OCC=C(C)CCC=C(C)C
inactive: OR1C1 (Homo sapiens) | OR1D2 [3] | OR1D2 [4] | OR1D2 [6] | OR1D5 (Homo sapiens) | OR1E1 [1] | OR1E1 [2] | OR1E2 (Homo sapiens) | OR1E2
active: OR1D2 (Homo sapiens) | OR1D2 [5] | OR1D5

CCCCCCCCOC(C)=O
inactive: OR1C1 (Homo sapiens) | OR1D2 (Homo sapiens) | OR1D5 (Homo sapiens) | OR1D5 | OR1E1 [1] | OR1E1 [2] | OR1E2 (Homo sapiens) | OR1E2
